The target in this test is APCDD1 bait fused to the C terminus of Fc (mouse) (UniProt Q3U128). Kind of test: SPR; Biacore, single-cycle kinetics/affinity, five-point dose response; bait-Fc on a proteinG chip; CC4-MBP in the mobile phase; done at Cayman Chemical; both purified.

Protein sequences, listed by entry. Tags and fused reporters are not part of them. Residues count along the entry.
UniProt Q3U128, residues 27-492: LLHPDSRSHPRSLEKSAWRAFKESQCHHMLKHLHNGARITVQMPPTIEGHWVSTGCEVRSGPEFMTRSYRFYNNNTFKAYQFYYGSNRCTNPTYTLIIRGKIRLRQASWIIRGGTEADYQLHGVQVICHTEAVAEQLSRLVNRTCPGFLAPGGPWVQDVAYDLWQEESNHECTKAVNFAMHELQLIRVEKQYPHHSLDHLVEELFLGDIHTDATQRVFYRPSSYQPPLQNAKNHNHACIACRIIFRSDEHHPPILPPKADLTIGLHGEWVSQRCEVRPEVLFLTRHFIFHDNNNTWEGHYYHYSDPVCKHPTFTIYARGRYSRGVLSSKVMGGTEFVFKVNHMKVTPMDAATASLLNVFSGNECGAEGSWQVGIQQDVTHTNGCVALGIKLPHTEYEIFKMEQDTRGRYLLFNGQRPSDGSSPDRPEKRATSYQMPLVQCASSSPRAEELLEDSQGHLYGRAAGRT

The text below walks through data of PMC11107207, “Utility of protein–protein binding surfaces composed of anti-parallel alpha-helices and beta-sheets selected by phage display” (The Journal of Biological Chemistry, 2024).

Results are given in words; binding and its absence hold for the method and conditions named. Sequences can lack the tags named with a protein.

B1: WT CC4-MBP (domain or fragment, mouse)
chain: PMRNPTDSLYCCDRAEDHACQNACKRILMSKKTEMEIVDGLIEGCKTQPLPQDPLWQCFLESSQS
notes: mouse RECK, CC domain 4 (CC4), a 4-helix bundle of 65 amino acids; also called RECK(CC4); source: E. coli SHuffle, purified (Ni-NTA)
Take B1: the binding result is listed as “no binding (tested: KD >50 μM)”.
